Data taken from PubChem BioAssay AID602346 (Broad Institute, 2012).
In all, about 340,000 compounds went through this assay and about 1,200 (0.35%) were called active. Inconclusive results, whose numbers are uncertain, are shown with a selection of clear calls. Cut-off read from the data, not from the text of the source: active = inhibition above about 50% (passing the limit was not always enough); inconclusive = no clear call, values can overlap the other calls; inactive = below about 31%.

Test: blockers of Vif multimerization in cells – imaging, HEK293T, single point, primary screen (AID 602346)
Conditions: Vif self-association by quenched fluorescence, 24 h, at 7.49 µM, hits give high values

| SMILES | inhibition |
| --- | --- |
| Cc1cccc(N2CCN(C(=O)COc3ccc4c(C)cc(=O)oc4c3C)CC2)c1C | inactive: -7.84% |
| CC(C)C(=O)Nc1cccc(S(=O)(=O)c2cccc(NC(=O)C(C)C)c2)c1 | inactive: -11.5% |
| C[C@H]1CCC(=O)N([C@H](CN=[N+]=[N-])Cc2ccccc2)CC1 | active: 59.3% |
| COc1ccc(OC)c(/C=C/C(=O)OCC(=O)N2CCCCC2)c1 | inconclusive: 32.3% |
| COCC(C)N=Cc1c(O)[nH]c2ccccc12 (configuration not stated) | inconclusive: 47.1% |
| CCCCOC(=O)Nc1nnc(CCc2ccccc2)s1 | inconclusive: 30.4% |
| CCOC(=O)c1sc(N(C)C)nc1-c1ccccc1 | inconclusive: 27.3% |
| COc1cc(/C=C2/SC(=S)N(CC(=O)Nc3cccnc3)C2=O)cc(OC)c1OC | inconclusive: 42.4% |
| Cc1ccc(Cn2c(=N)c(S(=O)(=O)c3ccc(Br)cc3)cc3c(=O)n4ccccc4nc32)cc1 | active: 52.7% |
| O=C(Nc1ccc(Br)cc1)C1CCC(=O)N1Cc1ccccc1Cl (configuration not stated) | inconclusive: 35.8% |
| O=C(NCc1cccnc1)C(=O)NCC1OCCCN1S(=O)(=O)c1ccc(F)cc1 (configuration not stated) | inconclusive: 21.7% |
| O=C(Cc1ccc(Cl)c(Cl)c1)NC1CCCCCC1 | inconclusive: 38.3% |
| C/C(N)=C(/C#N)C(=O)CSc1nc2ccccc2c(=O)n1-c1ccc(C)c(Cl)c1 | inactive: -3.39% |
| COC(=O)/C=C/c1ccc2c(c1)S(=O)(=O)N(c1cccc(OC)c1)[C@H]2CC(=O)OC | inactive: -4.81% |
| O=C(CSc1nnc(CNc2ccc(F)cc2)o1)c1ccccc1 | active: 62.2% |
| CCOC(=O)[C@H](CCc1ccccc1)N[C@@H](C)C(=O)N1[C@H](C(=O)O)C[C@@H]2CCC[C@@H]21 | inconclusive: 40.7% |
| CCc1cccc(CC)c1NC(=O)CSc1nnc(C2CC2)n1C | inactive: 16.9% |
| N#C/C(=C(/O)c1ccc([N+](=O)[O-])cc1)c1nnc2n1CCCCC2 | inconclusive: 38.8% |
| C#CCN1C(=O)S/C(=C/C=C/c2ccc(N(C)C)cc2)C1=O | active: 87.4% |
| Cc1ccccc1OC(C)C(=O)NC1CCCC1 (configuration not stated) | inconclusive: 8.45% |
| O=C(N/C(=C/c1cccnc1)C(=O)N1CCCCCC1)c1ccccc1 | inconclusive: 28.7% |
| COc1ccc(OCCSc2nc3ccccc3n2CCC(=O)O)cc1 | inconclusive: 39.4% |

Reformatted: 2 of the compounds above.
N#C/C(=C(/O)c1ccc([N+](=O)[O-])cc1)c1nnc2n1CCCCC2
  inhibition: inconclusive: 38.8%
C#CCN1C(=O)S/C(=C/C=C/c2ccc(N(C)C)cc2)C1=O
  inhibition: active: 87.4%

(further entries)

| SMILES | inhibition |
| --- | --- |
| CC(=O)c1ccc(NC(=O)C(NC(=O)c2ccccc2)=C(C)C)cc1 | inconclusive: 42.4% |
| COc1cc(OC)c(OC)cc1CCC(C)NCCC(c1ccccc1)c1ccccc1 (configuration not stated) | inactive: -6.66% |
| CC(C)Cc1nnc(NC(=O)CCC(=O)NC2CCCCCCC2)s1 | inconclusive: 25.2% |
| c1ccc2c(c1)oc1c(NCCCN3CCOCC3)ncnc12 | inconclusive: 34.3% |
| COc1cc(Cl)ccc1OCc1cc(C(=O)N2CCCCCC2)no1 | inactive: 4.13% |
| O=C(CN(Cc1ccco1)C(=O)CCC(=O)Nc1ccccn1)NCc1ccccc1 | inactive: 0.659% |
| COCCNS(=O)(=O)c1ccc2c3c(cccc13)C(=O)N2C | inconclusive: 40.8% |
| Cc1cccc(C)c1NC(=O)CNC(=O)c1ccc(N2CCCC2=O)cc1 | inconclusive: 40.6% |
| Cc1ccc(NS(=O)(=O)c2c(C)[nH]c(=O)[nH]c2=O)cc1C | inconclusive: 32.7% |
| CC(C)Nc1c(N)c(=O)oc2ccccc12 | active: 58.7% |
| O=C(COc1ccc(F)cc1)NCCCn1ccnc1 | inconclusive: 45.9% |
| CS(=O)(=O)N1CCN(C(=O)c2cc3ccccc3oc2=O)CC1 | inconclusive: 44.2% |
| CC1(C)CC2(CCO1)C(Nc1ccccc1)=NC(=S)N2CC(N)=O (configuration not stated) | inconclusive: 35.2% |
| COCC(C)NC(=O)Cn1c(SCc2ccccc2)nc2ccccc21 (configuration not stated) | inconclusive: 31.6% |
| O=C1OC2(CCCC2)OC(=O)C1=Cc1c[nH]c2ccccc12 | inconclusive: 28% |
| COC(=O)c1[nH]c2ccccc2c1NC(=O)/C=C/c1ccc2c(c1)OCO2 | inactive: -19.1% |
| COC(=O)c1c(C)[nH]c(C(=O)COc2ccc3ccc(=O)oc3c2)c1C | inconclusive: 32.4% |
| Cc1ccc(C(=O)NC2CC2)cc1S(=O)(=O)N1CCOCC1 | inactive: 0.182% |
| Cc1cc(NC(=O)COc2ccc(C(C)(C)C)cc2)no1 | inconclusive: 39.8% |
| COc1ccc(N2CCN(C(=O)/C=C/c3ccco3)CC2)cc1 | inactive: -4.2% |
| O=C(Nc1nc2c(F)cc(F)cc2s1)c1ccccn1 | inactive: 6.69% |
| C/C(=N\NS(=O)(=O)c1ccc(Cl)c([N+](=O)[O-])c1)c1cc2ccccc2o1 | inconclusive: 39.6% |
| Cc1ccc(N(C(=O)CNC(=O)c2ccco2)C(C(=O)NCC2CCCO2)c2ccccc2)cc1C (configuration not stated) | active: 52.8% |

| SMILES | inhibition |
| --- | --- |
| CC(CCc1ccccc1)NC(=O)CSc1ccccc1 (configuration not stated) | inconclusive: 23.2% |
| Cc1cc(=O)[nH]c(NCc2ccc(Cl)cc2)n1 | inconclusive: 26.2% |
| Cc1cc2ncn(C(=O)c3c(-c4ccccc4)noc3C)c2cc1C | inconclusive: 32.7% |
| CC(=O)C1CCC2C3CC=C4CC(SC(=N)N)CCC4(C)C3CCC12C (configuration not stated) | inactive: -23.6% |
| CCCCNC(=S)Nc1ccccc1Cc1ccccc1 | inconclusive: 34.5% |
| c1c2c(cc3sc(N4CCOCC4)nc13)OCO2 | inactive: -2.58% |
| O=C(O)c1ccc2c(=O)n3c(nc2c1)/C(=C/c1ccccc1Br)CC3 | inconclusive: 39.9% |
| Cc1ccccc1NC(=O)COc1coc(CN2CCCc3ccccc32)cc1=O | inactive: -0.826% |
| CC(NC(=O)COc1ccc(N(C)S(=O)(=O)c2ccccc2)cc1)c1ccccc1 (configuration not stated) | inactive: 2.01% |
| CN1CCN(S(=O)(=O)c2ccc3ccccc3c2)CC1 | inactive: 16.9% |
| COc1ccc2oc(-c3ccncc3)cc(=O)c2c1 | inactive: 12.7% |
| O=C(O)C(=O)/C(=C\c1ccsc1)c1ccc2ccccc2n1 | inactive: 13.5% |
| O=C(/C=C/c1cccnc1)/C=C/c1cccnc1 | inconclusive: 39.9% |
| Cc1ccc(NC(=O)CC2SC(=NCC3CCCO3)NC2=O)cc1Cl (configuration not stated) | active: 86.6% |
| Cn1nc(C(=O)Nc2cccnc2)c2ccccc2c1=O | inconclusive: 34.9% |
| COc1ccc(-c2noc(N3CCC(C(=O)Nc4cccc(OC)c4)CC3)n2)cc1 | inconclusive: 36.2% |
| CCS(=O)(=O)CCSc1nc(C)cc(C)n1 | inconclusive: 36.3% |
| CCOc1ccc(S(=O)(=O)N2c3ccccc3CC2C)cc1 (configuration not stated) | inconclusive: 46.1% |
| CN1C2CCC1/C(=C\c1ccccc1)C(=O)/C2=C\c1ccccc1 | inconclusive: 48% |
| COC(=O)c1[nH]cnc1C(=O)c1ccccc1 | inconclusive: 13.2% |
| COc1ccccc1C(=O)NCCC(=O)N1CC(=O)Nc2ccccc21 | inactive: -2.17% |
| CCc1ccc(S(=O)(=O)Nc2ccc(-c3ccc4nnc(C)n4n3)cc2)s1 | active: 69.6% |
| COc1ccccc1OC(C)C(=O)O (configuration not stated) | inconclusive: 27.3% |

Copied from the list:
Cc1cc(NC(=O)COc2ccc(C(C)(C)C)cc2)no1 – inhibition: inconclusive: 39.8%
O=C(/C=C/c1cccnc1)/C=C/c1cccnc1 – inhibition: inconclusive: 39.9%
CC(C)C(=O)Nc1cccc(S(=O)(=O)c2cccc(NC(=O)C(C)C)c2)c1 – inhibition: inactive: -11.5%
Cc1ccc(N(C(=O)CNC(=O)c2ccco2)C(C(=O)NCC2CCCO2)c2ccccc2)cc1C (configuration not stated) – inhibition: active: 52.8%
Cc1cccc(N2CCN(C(=O)COc3ccc4c(C)cc(=O)oc4c3C)CC2)c1C – inhibition: inactive: -7.84%
Cc1ccc(NS(=O)(=O)c2c(C)[nH]c(=O)[nH]c2=O)cc1C – inhibition: inconclusive: 32.7%

Remaining list, next part.

| SMILES | inhibition |
| --- | --- |
| COc1ccc(Cn2c(=O)[nH]c3cc(C(=O)N4CCN(c5ccc(OC)cc5)CC4)ccc3c2=O)cc1 | inconclusive: 41.4% |
| O=C(O)c1ccc(NC(=S)NCc2ccccc2)cc1 | inconclusive: 23.8% |
| Cc1oncc1C(=O)NC1CCCCC1 | inconclusive: 35.7% |
| O=C1CN(CC(=O)Nc2cccc(Cl)c2Cl)c2ccccc2N1 | inactive: 2.88% |
| CCCn1c(SCC(=O)N2CCCCC2)nnc1-c1ccco1 | inconclusive: 34% |
| COc1cccc(CN2CCN(CCCc3ccccc3)C(CCO)C2)c1O (configuration not stated) | inactive: -8.58% |
| COCCN(C(=O)COC(=O)Cc1ccc(Cl)cc1)c1c(N)n(Cc2ccccc2)c(=O)[nH]c1=O | inconclusive: 12.2% |
| CN(C(=O)c1cccc(S(=O)(=O)N2CCCCC2)c1)C1CCS(=O)(=O)C1 (configuration not stated) | inconclusive: 32.7% |
| N#Cc1c(N)nc(SCC(=O)NCCc2ccccc2)c(C#N)c1-c1cccs1 | inconclusive: 49.1% |
| CS(=O)(=O)Nc1ccc2c(c1)nc1n2CCOC1 | inconclusive: 35.8% |
| O=C(CN1C(=O)c2cccc([N+](=O)[O-])c2C1=O)N1CCN(S(=O)(=O)c2ccccc2)CC1 | inconclusive: 33.9% |
| COC(/C=C/Nc1ccc(C)c(C)c1)=C(C#N)C#N | inconclusive: 27.6% |
| COC(=O)c1ccc(COC(=O)CNC(=O)c2ccc(C)s2)cc1 | inactive: -6.68% |
| N#Cc1cccc(NC(=O)CN2CCCCCC2)c1 | inconclusive: 43.2% |
| O=C(CSc1ccc(-c2ccc(F)cc2)nn1)NCC1CCCO1 (configuration not stated) | inactive: 1.61% |
| Cc1c(CCC(=O)O)c(=O)oc2c(C)c(OCc3cc4c(cc3Cl)OCO4)ccc12 | inactive: 7.15% |
| O=C(Nc1ccc2[nH]ccc2c1)c1ccc(F)cc1 | inconclusive: 36.3% |
| O=C1CC(N(CCc2ccccc2)C(=S)Nc2ccccc2)C(=O)N1c1ccc(F)cc1 (configuration not stated) | inconclusive: 20.6% |
| Cc1ccc(C(=O)NC(C)c2ccc(S(N)(=O)=O)cc2)s1 (configuration not stated) | inconclusive: 36.1% |
| COc1ccc(C2OCC3(O)C(c4ccc(OC)c(OC)c4)OCC23)cc1OC (configuration not stated) | inconclusive: 33.9% |
| COc1ccc(CC(NC(C)=O)C(=O)N2CCN(C(=O)Nc3cccc(Cl)c3)CC2)cc1OC (configuration not stated) | active: 50.1% |
| CC1=CC(=O)CC(C)(C)C1(O)/C=C/C(C)=C/C(=O)O (configuration not stated) | inconclusive: 29.5% |
| COc1ccccc1-n1cnnc1SCC(=O)NC1CCCC1 | inconclusive: 29.5% |
